Test results published in PubChem BioAssay (EPA / NIEHS).
Inconclusive results, whose numbers are uncertain, are shown with a selection of clear calls. Where the call is inconclusive, the potency comes from a doubtful curve fit. Active and inactive are the calls of the source. How the source made its calls: active means hit-call score of the fitted dose curve at least 0.9, where 1 is the maximum; inconclusive means response in the unintended direction; inactive means score below 0.9.

By UniProt entry, the sequences of proteins in these tests, tags left out. Where a name states a change or a piece, a line headed by the entry shows the natural chain unless it says otherwise.
UniProt P22199: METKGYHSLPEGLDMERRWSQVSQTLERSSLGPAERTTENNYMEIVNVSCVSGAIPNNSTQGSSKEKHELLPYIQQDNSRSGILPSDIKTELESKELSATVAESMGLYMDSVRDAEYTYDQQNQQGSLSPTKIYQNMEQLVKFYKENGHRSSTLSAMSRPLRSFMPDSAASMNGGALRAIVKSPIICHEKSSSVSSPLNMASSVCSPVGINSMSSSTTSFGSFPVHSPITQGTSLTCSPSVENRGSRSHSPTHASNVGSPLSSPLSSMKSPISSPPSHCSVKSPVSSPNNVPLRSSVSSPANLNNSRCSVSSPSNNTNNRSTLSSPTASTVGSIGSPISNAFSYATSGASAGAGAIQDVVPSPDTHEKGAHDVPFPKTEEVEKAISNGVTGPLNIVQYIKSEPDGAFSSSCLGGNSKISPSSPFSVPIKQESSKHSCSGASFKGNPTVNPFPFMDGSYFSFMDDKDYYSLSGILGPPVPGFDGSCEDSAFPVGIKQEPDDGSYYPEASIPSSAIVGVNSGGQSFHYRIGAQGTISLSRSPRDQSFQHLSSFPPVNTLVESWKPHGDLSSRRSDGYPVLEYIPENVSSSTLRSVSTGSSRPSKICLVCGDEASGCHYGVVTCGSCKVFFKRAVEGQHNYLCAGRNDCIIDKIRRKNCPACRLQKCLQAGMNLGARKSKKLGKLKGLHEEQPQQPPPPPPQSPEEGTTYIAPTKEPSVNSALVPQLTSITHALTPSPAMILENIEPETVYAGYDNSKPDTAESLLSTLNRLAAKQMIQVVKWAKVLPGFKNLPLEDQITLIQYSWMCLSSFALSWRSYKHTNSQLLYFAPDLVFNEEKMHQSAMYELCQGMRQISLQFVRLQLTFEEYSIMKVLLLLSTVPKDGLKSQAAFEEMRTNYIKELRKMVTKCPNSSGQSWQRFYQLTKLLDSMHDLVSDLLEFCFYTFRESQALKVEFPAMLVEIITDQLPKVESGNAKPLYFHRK
UniProt P03372, whole entry, looked up: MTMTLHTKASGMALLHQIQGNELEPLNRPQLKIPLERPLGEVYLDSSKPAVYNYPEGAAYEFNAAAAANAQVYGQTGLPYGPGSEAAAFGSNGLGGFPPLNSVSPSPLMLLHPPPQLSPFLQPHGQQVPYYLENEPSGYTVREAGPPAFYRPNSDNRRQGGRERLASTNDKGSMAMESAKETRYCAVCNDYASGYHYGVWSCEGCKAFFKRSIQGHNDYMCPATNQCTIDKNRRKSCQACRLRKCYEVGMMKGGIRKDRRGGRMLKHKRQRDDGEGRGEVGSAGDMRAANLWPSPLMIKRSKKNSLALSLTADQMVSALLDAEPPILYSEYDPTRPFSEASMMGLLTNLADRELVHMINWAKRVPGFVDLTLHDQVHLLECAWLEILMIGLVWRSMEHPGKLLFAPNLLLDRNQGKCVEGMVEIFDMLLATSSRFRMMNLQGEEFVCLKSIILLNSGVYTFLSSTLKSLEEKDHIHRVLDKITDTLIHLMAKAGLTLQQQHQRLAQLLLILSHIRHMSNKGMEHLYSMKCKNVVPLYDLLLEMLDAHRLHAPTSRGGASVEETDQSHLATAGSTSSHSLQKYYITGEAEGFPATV
UniProt Q92731, whole entry, looked up: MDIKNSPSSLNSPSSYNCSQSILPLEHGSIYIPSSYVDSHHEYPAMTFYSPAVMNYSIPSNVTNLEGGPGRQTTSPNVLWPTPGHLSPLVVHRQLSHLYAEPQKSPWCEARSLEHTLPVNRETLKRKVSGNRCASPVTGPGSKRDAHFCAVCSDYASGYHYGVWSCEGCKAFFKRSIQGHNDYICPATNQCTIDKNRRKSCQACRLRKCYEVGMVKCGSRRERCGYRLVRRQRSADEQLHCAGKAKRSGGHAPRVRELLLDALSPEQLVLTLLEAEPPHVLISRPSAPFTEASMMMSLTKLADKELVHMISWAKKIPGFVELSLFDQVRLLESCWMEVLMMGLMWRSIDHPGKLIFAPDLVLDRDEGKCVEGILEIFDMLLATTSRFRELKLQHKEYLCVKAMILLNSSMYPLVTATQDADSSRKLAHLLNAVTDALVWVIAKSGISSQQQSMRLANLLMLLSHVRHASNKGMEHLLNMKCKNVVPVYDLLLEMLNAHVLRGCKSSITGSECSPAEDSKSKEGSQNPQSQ

molecular target: rat Mineralocorticoid Receptor (MR), Nr3c2 (gene 25672) (UniProt P22199); assay: NVS_NR_rMR: NovaScreen (NVS) Nuclear Receptor Binding Assay for rat Mineralocorticoid Receptor (MR) (AID 2283355)
Outline: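 Cell-free radioligand binding to mineralocorticoid receptor from adrenalectomized rat brain supernatant, scintillation counting after 24 h. Primary screen in duplicate at 25 uM; actives retested in concentration series. Loss of specific binding versus DMSO.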

SMILES | AC50 | outcome
C[C@]12CC[C@@H]3c4ccc(O)cc4CC[C@H]3[C@@H]1CC[C@H]2O | active: 0.135 µM | 
Oc1ccc(/C=C/c2cc(O)cc(O)c2)cc1 |  | inactive
c1ccc2ccccc2c1 | inconclusive: 25 µM | 
Cc1ccc(S(=O)(=O)O)cc1C | inconclusive: 0.568 µM | 
CC(=O)N1CCN(c2ccc(OC[C@H]3CO[C@](Cn4ccnc4)(c4ccc(Cl)cc4Cl)O3)cc2)CC1 | inconclusive: 25 µM | 
CCN(CC)CCOc1ccc(C(=C(Cl)c2ccccc2)c2ccccc2)cc1 | inconclusive: 0.00594 µM | 
CN(C[C@@H](CC[N+]12CCC(C3CCCCC3)(CC1)CC2)c1ccc(Cl)c(Cl)c1)C(=O)c1cc(C(F)(F)F)cc(C(F)(F)F)c1 | inconclusive: 25 µM | 
CN(C)C(=O)NC1(c2ccccc2)CCN(CCC[C@]2(c3ccc(Cl)c(Cl)c3)CCCN(C(=O)c3ccccc3)C2)CC1 | inconclusive: 6.25 µM | 
NC(=O)Cn1c(=O)cc(CCN2CCN(c3nccc4sccc34)CC2)c2ccc(F)cc21 | inconclusive: 0.687 µM | 
CC1(C)C(=O)NC(=O)N1CO | inconclusive: 25 µM | 

molecular target: Estrogen receptor (Homo sapiens) + Estrogen receptor beta (Homo sapiens) (UniProt P03372+Q92731); assay: OT_ER_ERaERb_1440: Odyssey Thera (OT) 24-hour HEK293T Protein-Complementation Assay for Estrogen Receptor-alpha/-beta Homodimer (AID 2283356);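 further: heteromer of ER alpha and ER beta binding domains; hits raise reporter fluorescence and both agonists and antagonists give an increase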
Outline: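 Fragment complementation between ER alpha (310-547) and ER beta (263-489) ligand-binding domains in HEK293T cells; signal read 24 h post-dosing by laser scanning cytometer. Gain of fluorescence relative to DMSO fitted.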

SMILES | outcome | AC50
O=C(Nc1ccc2c(O)c(N=Nc3ccc(N=Nc4ccc(S(=O)(=O)O)cc4)cc3)c(S(=O)(=O)O)cc2c1)c1ccccc1 | inactive | 
C1CNCCN1 | inactive | 
Cc1c2ccccc2c(C)c2c1ccc1ccccc12 |  | inconclusive: 50 µM
CCOC(=O)CC(O)(CC(=O)OCC)C(=O)OCC |  | inconclusive: 50 µM
COC(=O)c1ccc(C(=O)OC)cc1 | inactive | 
CN(C)c1ccc(C(=N)c2ccc(N(C)C)cc2)cc1 |  | active: 18.4 µM
CC(=O)N1CCN(c2ccc(OC[C@H]3CO[C@](Cn4ccnc4)(c4ccc(Cl)cc4Cl)O3)cc2)CC1 |  | inconclusive: 50 µM
CC(C)(C)c1cc(/C=C2\SC(N)=NC2=O)cc(C(C)(C)C)c1O |  | inconclusive: 50 µM
O=C1c2ccccc2C(=O)N1SC1CCCCC1 |  | inconclusive: 86.6 µM
CN(C[C@@H](CC[N+]12CCC(C3CCCCC3)(CC1)CC2)c1ccc(Cl)c(Cl)c1)C(=O)c1cc(C(F)(F)F)cc(C(F)(F)F)c1 |  | inconclusive: 22.3 µM
CCCCCCc1ccc(N)cc1 |  | active: 21.4 µM
CCCCCCCC[N+](C)(CCCCCCCC)CCCCCCCC |  | inconclusive: 25 µM
OCC(CO)(CO)CO | inactive | 
C=CC(=C)CCC=C(C)C | inactive | 
Oc1ccc(Cl)cc1Cc1cc(Cl)ccc1O |  | active: 11.9 µM

Part of the list above in another layout:
SMILES,outcome,AC50
C1CNCCN1,inactive,
CCOC(=O)CC(O)(CC(=O)OCC)C(=O)OCC,,inconclusive: 50 µM
